In PubChem BioAssay AID504327 (National Center for Advancing Translational Sciences (NCATS), 2011):
Where “and” joins values, the source holds several entries; their conditions need not be identical. Equal values may be shown once. Out of some 390,000 compounds screened, about 820 (0.21%) were called active. The shares of active, inactive and inconclusive entries below differ from those in the screen. Calls follow the shape of the dose curve; as a rule, active = well fitted inhibition curve with a large enough effect; inconclusive = small, poorly fitted or top-dose-only effect, or another doubt; inactive = no such curve, though single readings can be large or run the other way. Where the call is inconclusive, the potency comes from a doubtful curve fit.

Chains of the proteins cited; added tags and fusions are not shown.
UniProt Q92830, whole entry, looked up: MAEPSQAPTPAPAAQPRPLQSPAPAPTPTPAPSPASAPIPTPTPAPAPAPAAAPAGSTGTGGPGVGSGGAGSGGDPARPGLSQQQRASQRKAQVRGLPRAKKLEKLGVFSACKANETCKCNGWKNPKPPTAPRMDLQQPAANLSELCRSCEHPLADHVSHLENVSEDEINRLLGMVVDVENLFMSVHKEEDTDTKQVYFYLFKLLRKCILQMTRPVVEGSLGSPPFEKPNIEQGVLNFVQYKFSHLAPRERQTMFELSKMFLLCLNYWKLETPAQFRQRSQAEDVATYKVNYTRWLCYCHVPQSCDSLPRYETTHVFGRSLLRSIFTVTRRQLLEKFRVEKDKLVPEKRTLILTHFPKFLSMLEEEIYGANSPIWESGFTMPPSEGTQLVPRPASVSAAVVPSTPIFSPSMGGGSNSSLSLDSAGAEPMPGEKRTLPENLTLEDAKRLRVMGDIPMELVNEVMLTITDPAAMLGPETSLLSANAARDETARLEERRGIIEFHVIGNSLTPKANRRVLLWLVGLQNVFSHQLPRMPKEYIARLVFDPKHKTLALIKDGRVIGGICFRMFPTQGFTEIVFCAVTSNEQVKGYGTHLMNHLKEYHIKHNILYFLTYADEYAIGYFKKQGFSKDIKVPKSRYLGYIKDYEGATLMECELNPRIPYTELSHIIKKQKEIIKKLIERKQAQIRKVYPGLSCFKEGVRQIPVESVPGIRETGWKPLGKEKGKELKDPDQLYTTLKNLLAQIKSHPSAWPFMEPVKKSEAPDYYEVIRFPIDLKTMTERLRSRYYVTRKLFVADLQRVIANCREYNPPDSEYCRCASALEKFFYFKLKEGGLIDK

These molecules were tested against Histone acetyltransferase KAT2A (Homo sapiens) (UniProt Q92830) (assay: qHTS Assay for Inhibitors of GCN5L2). Conditions: GCN5L2 HAT assay, ThioGlo1 CoA-SH fluorescence; series mostly up to 58.9 µM.
Procedure, shortened: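 Compounds, pin-transferred from DMSO stocks, meet 20nM GCN5L2 for 15 min before the reaction begins with H3(1-25) peptide (75uM) and acetyl-CoA (70uM). Thiol-reactive ThioGlo1 reports CoA release over 20 min at room temperature.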
Potency is read from the fitted curve at half-maximal effect.

Compound | Potency
C[N+]1(C)CCC(OC(=O)C(c2ccccc2)c2ccccc2)CC1 | inconclusive: 28.2 µM [inhibitor, single point] and inconclusive: 31.6 µM [inhibitor, single point]
Cc1ccc(S(=O)(=O)N2[C@@H](c3ccc(Cl)cc3)C(C(=O)O)=CC[C@H]2c2ccc(C(C)C)cc2)cc1 | inconclusive: 35.5 µM [inhibitor, single point]
CC(C)[C@H]1COC(c2cc(Cl)cc(Cl)c2)=N1 | inconclusive: 3.16 µM [inhibitor, full curve, poor fit]
COC(=O)c1ccc(CSCc2ccc(C(=O)OC)o2)o1 | inactive
CCCCCCCCCCCCCCCC(=O)OCC(O)C1OC(=O)C(O)=C1O (centres undefined) | active: 8.91 µM
CCC(=O)N1CCN(c2cc(C)ccc2C)CC1 | inconclusive: 28.2 µM [inhibitor, single point]
Cn1c(CO)cnc1-c1ccccc1 | inconclusive: 5.01 µM [inhibitor, full curve, poor fit]
O=c1cc(-c2ccccc2)oc2c(O)c(O)ccc12 | inconclusive: 39.8 µM [inhibitor, single point]
CNC(=O)NC(=O)CSc1nnc(-c2ccco2)n1Cc1ccccc1 | inconclusive: 39.8 µM [inhibitor, single point]
COCCNC(=O)CN(C(=O)CCC(=O)Nc1ccccn1)c1cc(C)ccc1C | inactive
COc1ccccc1N1CCN(C(=O)c2cc3c(s2)CCCCC3)CC1 | inconclusive: 20 µM [inhibitor, partial curve, poor fit]
CCCOC(=O)c1cc(NC(=O)/C=C/c2ccccc2)ccc1O | inconclusive: 28.2 µM [inhibitor, single point]
CC1Cc2cc(/C(O)=C3/C(=O)C(=O)N(Cc4ccco4)C3c3cccs3)ccc2O1 (centres undefined) | inconclusive: 39.8 µM [inhibitor, single point]
Cc1c([N+](=O)[O-])cc(C(=O)Oc2ccc(Br)cc2C(=S)N2CCCCC2)cc1[N+](=O)[O-] | inactive
CCCSc1nnc(Cc2cc(=O)[nH]c(=O)[nH]2)n1-c1cc(C)ccc1C | inactive
O=C(N/N=C1/CC2CCC1C2)c1cc2ccccc2cc1O (centres undefined) | inconclusive: 10 µM [inhibitor, partial curve, poor fit]
Cc1nn(C)cc1C(C(=O)NC1CCCCC1)N(CCc1ccccc1)C(=O)c1cnccn1 (centres undefined) | inconclusive: 39.8 µM [inhibitor, single point]
Cc1ccc(S(=O)(=O)N2CCC(=O)N([C@H](COCc3ccc(Cl)cc3)Cc3ccccc3)CC2)cc1 | inactive
O=C(Nc1ccccc1-c1nc2ccccc2s1)C1=COCCO1 | inconclusive: 39.8 µM [inhibitor, single point]
Cc1ccc(S(=O)(=O)N(C)Cc2cc3cc(C)ccc3[nH]c2=O)cc1 | inactive
COc1ccc(/C=C(/NC(=O)c2ccccc2)C(=O)NCCCn2ccnc2)cc1OC | inconclusive: 39.8 µM [inhibitor, single point]
Cc1ccc(S(=O)(=O)N2CCCC(C)C2)cc1 (centres undefined) | inconclusive: 0.708 µM [inhibitor, single point]
Cc1ccc(NS(=O)(=O)c2ccc3c(c2)n(C)c(=O)n3C)cc1 | inactive

Compound | Potency
O=C(Nc1cnn(Cc2c(Cl)cccc2Cl)c1)c1ccc([N+](=O)[O-])cc1 | inconclusive: 0.708 µM [inhibitor, single point]
Cc1ccc(NC(=O)C(C)OC(=O)c2ccc(Cl)nc2)cc1S(=O)(=O)N1CCOCC1 (centres undefined) | inconclusive: 39.8 µM [inhibitor, single point]
O=C(CCC(=O)N1CCSc2ccccc21)NCc1ccccc1 | inconclusive: 7.08 µM [inhibitor, single point]
COc1cccc(NC2c3ccccc3C(=O)N2Cc2ccccc2Cl)c1 (centres undefined) | inconclusive: 7.94 µM [inhibitor, partial curve, poor fit]
O=C1NC(=O)/C(=C/c2cccc(O)c2)N1 | inactive
Cc1cccc(NC(=O)CSc2ccc(-c3cccnc3)nn2)c1 | inconclusive: 0.631 µM [inhibitor, full curve]
NC(=O)CNC(=O)[C@@H]1CC2(CC(c3ccc(Cl)cc3)=NO2)CN1C(=O)c1ccc(Br)cc1 (some centres undefined) | inconclusive: 25.1 µM [inhibitor, single point]
O=Cc1ccccc1C=O | inconclusive: 39.8 µM [inhibitor, single point]
CC1(C)Cc2c(C#N)c(N3CCN(C(=O)c4ccccc4Cl)CC3)nc(-c3ccco3)c2CS1 | inconclusive: 31.6 µM [inhibitor, single point]
O=[N+]([O-])c1ccc(S(=O)(=O)Nc2nnc(C3CCCCC3)s2)cc1 | inactive
N#C/C(=C\c1cccc(Br)c1)C(=O)N1CCCCC1 | inactive
CCOC(=O)C(=O)Nc1ccc(S(=O)(=O)N2CCOCC2)cc1OC | inconclusive: 39.8 µM [inhibitor, single point]
Cc1ccc2c(c1)c1c(n2C)C(=O)CCC1 | inconclusive: 39.8 µM [inhibitor, single point]
COc1ccc(NC(=O)c2ccccn2)cc1 | inactive
CC1CCN(C(=O)COC(=O)/C=C/c2ccc(Br)o2)CC1 | inconclusive: 25.1 µM [inhibitor, single point]
CCN(CC)CCNC(=O)c1cc(-c2ccc(Br)s2)nc2ccccc12 | inactive
COc1cc(/C=C/C(=O)OC2CC3CCC2(C)C3(C)C)ccc1O (centres undefined) | inconclusive: 0.126 µM [inhibitor, full curve, poor fit]
CC(=O)N1c2ccc(S(=O)(=O)NCCC(=O)NC3CCCC(C)C3C)cc2CC1C (centres undefined) | inconclusive: 5.62 µM [inhibitor, single point]
Cc1c(CC(=O)N2CCN(C(=O)C3COc4ccccc4O3)CC2)c(=O)oc2c(C)c(O)ccc12 (centres undefined) | inconclusive: 17.8 µM [inhibitor, partial curve]
CNS(=O)(=O)c1cc(NC(=O)c2cnc(SC)n2-c2ccccc2)ccc1C | inactive
COc1cc(Cl)c(NC(=O)CN2C(=O)c3cccnc3Sc3ccccc32)c(OC)c1 | inactive
CC1(C)CC2CC(C)(CN2S(=O)(=O)c2ccc(C(=O)Nc3ccc(Cl)c(S(=O)(=O)N4CCOCC4)c3)cc2)C1 (centres undefined) | inconclusive: 28.2 µM [inhibitor, partial curve, poor fit]
Cc1ccc(/C=N/NC(=O)C(C)Oc2cccc3ccccc23)o1 (centres undefined) | inconclusive: 10 µM [inhibitor, partial curve]

Four compounds from above, sorted by molar mass, smallest number first.
Compound | Potency
Cc1ccc(/C=N/NC(=O)C(C)Oc2cccc3ccccc23)o1 (centres undefined) | inconclusive: 10 µM [inhibitor, partial curve]
CNS(=O)(=O)c1cc(NC(=O)c2cnc(SC)n2-c2ccccc2)ccc1C | inactive
CCN(CC)CCNC(=O)c1cc(-c2ccc(Br)s2)nc2ccccc12 | inactive
NC(=O)CNC(=O)[C@@H]1CC2(CC(c3ccc(Cl)cc3)=NO2)CN1C(=O)c1ccc(Br)cc1 (some centres undefined) | inconclusive: 25.1 µM [inhibitor, single point]

Going on with the list:

Compound | Potency
CCCCOC(=O)C(C)Nc1n[nH]c(=O)[nH]c1=O (centres undefined) | inactive
O=C(C1=NN(c2ccccc2)C2C(=O)N(c3ccccc3)C(=O)C12)c1ccccc1 (centres undefined) | inconclusive: 35.5 µM [inhibitor, single point]
O=C(CCN1C(=O)c2ccccc2C1=O)Nc1ccc(F)cc1 | inconclusive: 1.26 µM [inhibitor, partial curve]
CCOC(=O)c1ccccc1OC(=O)CS(=O)c1ccccc1[N+](=O)[O-] (centres undefined) | inactive
C[C@H](NC(=O)c1nc[nH]c1C(=O)NCCCCCNC(=O)OC(C)(C)C)c1ccccc1 | inactive
O=C(Nc1nnc(S(=O)(=O)N2CCCc3ccccc32)s1)c1ccc(Cl)cc1 | inactive
Cc1cc(C)c2cc3c(ccn3C3OC[C@H](O)[C@H](O)[C@H]3O)cc2n1 (some centres undefined) | inconclusive: 28.2 µM [inhibitor, single point]
COc1ccc(CN2CCC(n3nccc3NC(=O)C3CCCC3)CC2)cc1 | inconclusive: 0.891 µM [inhibitor, full curve, poor fit]
O=C(CCSc1ccccc1)Nc1nccs1 | inactive
O=C(c1cnccn1)N1CCC2(CC1)CN(c1ncccn1)C2 | inconclusive: 7.08 µM [inhibitor, single point]
O=C(CCN1C(=O)/C(=C/c2cccs2)SC1=S)Nc1ccc(C(=O)O)c(O)c1 | inconclusive: 3.16 µM [inhibitor, partial curve]
CCOC(=O)C1=C(CN2CCOCC2)NC(=O)NC1c1cccc([N+](=O)[O-])c1 (centres undefined) | inactive
O=C(COc1cccnc1[N+](=O)[O-])c1ccc(Cl)s1 | inconclusive: 0.398 µM [inhibitor, full curve]
CC(C)Oc1ccc(CSc2ncn[nH]2)cc1 | inconclusive: 0.562 µM [inhibitor, single point]
CC1CCCCC1NC(=O)CSc1nncn1N (centres undefined) | inactive
COc1ccc(Cl)cc1NC(=O)c1cc(S(=O)(=O)N2CCCC2)cn1C | inconclusive: 0.794 µM [inhibitor, full curve, poor fit]
Cc1cc(NC(=O)CCC2COc3ccccc3O2)no1 (centres undefined) | inconclusive: 3.16 µM [inhibitor, single point]
CCC(C)n1c(=O)c2sccc2n2c(CCCC(=O)Nc3ccc(F)cc3)nnc12 (centres undefined) | inactive
COc1cccc(NC(=O)CSc2nnc(Cc3cccn3C)n2-c2ccc(F)cc2)c1 | inconclusive: 39.8 µM [inhibitor, single point]
COc1ccc(-c2cc(C(=O)O)c3c(C)nn(-c4ccccn4)c3n2)cc1 | inconclusive: 39.8 µM [inhibitor, single point]
CC(C)OCCCNc1ccc(N2C(=O)CCCC2=O)cc1[N+](=O)[O-] | inconclusive: 3.16 µM [inhibitor, partial curve]
O=S(=O)(NNc1ncc(C(F)(F)F)cc1Cl)c1ccc(F)cc1F | inactive
CC(C)C[C@H](NC(=O)c1nc[nH]c1C(=O)NC1CCN(C(=O)OC(C)(C)C)CC1)C(=O)OCc1ccccc1 | inconclusive: 35.5 µM [inhibitor, single point]
